## Screening data, single-dose tests

Chains of the proteins cited; added tags and fusions are not shown. Residues count along the entry.
UniProt A4I591, 1-473: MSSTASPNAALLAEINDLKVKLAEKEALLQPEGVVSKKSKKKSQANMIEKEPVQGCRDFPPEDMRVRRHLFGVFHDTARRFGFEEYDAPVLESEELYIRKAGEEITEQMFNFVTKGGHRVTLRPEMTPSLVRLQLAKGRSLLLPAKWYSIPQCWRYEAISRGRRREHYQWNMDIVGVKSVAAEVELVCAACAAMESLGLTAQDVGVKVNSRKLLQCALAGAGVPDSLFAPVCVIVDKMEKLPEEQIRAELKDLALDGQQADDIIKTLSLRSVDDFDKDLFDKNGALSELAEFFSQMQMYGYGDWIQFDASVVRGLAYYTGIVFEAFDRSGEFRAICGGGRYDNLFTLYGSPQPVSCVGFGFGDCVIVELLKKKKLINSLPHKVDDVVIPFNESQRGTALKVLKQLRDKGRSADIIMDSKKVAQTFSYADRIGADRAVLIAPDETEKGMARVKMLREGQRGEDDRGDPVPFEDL

Data taken from ChEMBL document CHEMBL3988442, “University of Dundee, Small-Polar-MMV Screening Library” (2021).

Values are the deposited “Percent Effect”, in %. The controls that fix the scale are not given in the record; negative values are as filed. This is an unselected part of the compounds tested. A dash means the value is not listed here; it may have been measured.

Toxoplasma: 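Assay of Toxoplasma gondii numbers, read through their beta-galactosidase reporter with a colour substrate. Compounds at 10 µM. The record gives no direction; the compounds picked for IC50 retests had high values, so higher reads as fewer parasites. Of about 67,000 compounds tested this way, about 260 (0.38%) reached 50% or more in at least one test.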
LiHisRS: 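Enzyme assay of histidyl-tRNA synthetase; the read-out is not stated. Target: Histidine-tRNA ligase, Leishmania infantum (UniProt A4I591). Tested at 30 µM. Direction is inferred from retests: higher values go with stronger inhibition. The assay is labelled LdHisRS but filed under L. infantum. Size under these conditions: about 69,000 compounds, about 410 of them at 50% or above in at least one test.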

structure,Toxoplasma,LiHisRS
CCn1c(CN2CCN(CCO)CC2)nc2c(F)cccc21,-14.45,16.07
Cc1c[nH]cc1C(=O)N1CCN(CCc2cccs2)CC1,-18.87,17.02
COc1ccccc1OCc1cc(C(=O)N2CC=CC2C(C)C)n[nH]1 (configuration not stated),-6.397,22.12
CCc1nnc2n1CCN(C(=O)CN(CC)CC)C2,-11.44,13.39
CCN1CC(C(=O)N2CC(Oc3ccccc3F)C2)CC1=O (configuration not stated),7.391,20.97
CC(CNC(=O)N1CCSCC1)Cc1cccs1 (configuration not stated),-2.36,19.23
O=C(c1ccc(F)cc1F)N1CCN(C(=O)C2CCCCC2)CC1,9.291,24.05
CN(Cc1cccc(C#N)c1)C(=O)C1CC(c2cccc(F)c2)=NO1 (configuration not stated),-4.823,8.861
CCOc1nnc(CN(CC)CC(=O)NC(C)C)s1,16.79,9.574
Cn1cc([C@@H]2CN(S(=O)(=O)c3cccnc3)C[C@H]2N)c2ccncc21,-,13.04
O=C(O)C(F)(F)F.[H][C@@]12OCCN(S(=O)(=O)C3CC3)[C@@]1([H])CC[C@@H]2Oc1cccnc1,11.46,-
COc1cc(N2CCc3ncnc(-c4ccncc4)c3CC2)ncn1,-,18
COc1cc(Br)c(CNC(C)c2nnc3n2CCC3)cc1OC (configuration not stated),-1.418,25.64
NC(=O)Cn1cnc2nc3n(c2c1=O)CCC3,8.613,10.34
CCOc1ccccc1-c1noc(CN2CCN(CCOC)CC2)n1,5.443,9.917
Cc1ncc(C(=O)NC2CCc3nccn3C2)c(C(C)C)n1 (configuration not stated),-1.751,6.195
CN(C)C(=O)CN1CCOCC2(C1)CN(c1ncccn1)CCO2 (configuration not stated),-,0.9009
Cc1ncncc1C(=O)N1CCCN(Cc2cnn(C(C)C)c2)CC1,11.23,4.839
c1ccc2c(N3CCOCC3)cnnc2c1,-0.1763,17.65
CN(C)CCOCC1CN(Cc2ccncc2)Cc2nnn(C)c21.O=C(O)C(F)(F)F.O=C(O)C(F)(F)F.O=C(O)C(F)(F)F (configuration not stated),2.154,-
O=C(c1ccccn1)N1CCN(C(c2ccccc2)C(F)(F)F)CC1 (configuration not stated),-0.05359,-2.679
COCCN1CCC(CNC(=O)c2cc(Cl)c[nH]2)CC1,-9.686,2.381
CC1CCCN(c2ncc(-c3ccccc3F)c(-c3nccn3C)n2)C1 (configuration not stated),-3.021,8.392
COCCCC1(C(=O)O)CCCN(C(=O)c2ccc(C(C)C)[nH]c2=O)C1 (configuration not stated),-2.949,12.82
CS(=O)(=O)NC1CC2(CCN(CC3CC3)CC2)Oc2ccccc21 (configuration not stated),-,13.89
CCCC(=O)N1CCN(CCN(C)C)c2nc(C)ccc2C1,-,17
COCC1COCCC12CCN(S(=O)(=O)c1cccnc1)CC2.O=C(O)C(F)(F)F (configuration not stated),7.967,-
CCc1sc(-c2nnc(CNCCn3cccn3)o2)cc1C,1.711,22.22
COc1ccccc1CNc1c(N2CCN(C(C)=O)CC2)c(=O)c1=O,10.02,18.68
Cc1cc(C[C@@H]2COC[C@@H]2NC(=O)CN2CCCC2)on1,2.956,17.31
Cc1[nH]c2c(F)cccc2c1CC(=O)NC1CCCCNC1=O (configuration not stated),36.43,-1.77
Cc1nn2c(N3CCC(O)C3)cc(-c3ccccc3)nc2c1C (configuration not stated),-5.235,13.33
COc1ccccc1N1CCC(CNCc2cccc(O)c2)C1 (configuration not stated),-3.963,21.43
CCO[C@H]1CO[C@@]2(CCCN(Cc3scnc3C)C2)C1.O=C(O)C(F)(F)F,2.636,-
CN(Cc1cnccn1)S(=O)(=O)c1ccc(C(F)(F)F)nc1,-27.33,14.63
CC(C)c1nccn1-c1cncc(C2CCCN(C3CCCCC3)C2)n1 (configuration not stated),13.01,27.54
CS(=O)(=O)N1CCC(c2cnc(-c3cn[nH]c3)cn2)CC1,1.523,11.27
COc1ccc(NC(=O)NC(C)Cc2ccco2)cn1 (configuration not stated),0.6916,12.84
COCCNc1nc(C2CCCC2)nc2c1CCNCC2,6.232,23.08
c1ccc(CCc2n[nH]c(C3CCOC3)n2)cc1 (configuration not stated),9.93,11.48
Cc1cc(C)n(CC(=O)N2CCC(NS(=O)(=O)c3ccccc3)CC2)n1,-11.57,21.6
COCCC(=O)N1CCCC1c1csc(Nc2ncccn2)n1 (configuration not stated),7.383,21.74
COc1ncccc1NC(=O)c1cccc(C)n1,-13.46,10.64
CC(C)(O)CCc1ccc(C(=O)NCCC2CCCOC2)cc1 (configuration not stated),15.02,14.75
CC(NC1(CNC(=O)OC(C)(C)C)CCOCC1)c1ccccc1 (configuration not stated),0.3277,16.13
Cc1ccc(S(=O)(=O)N2CCC(Cn3cc(C(C)(C)N)nn3)CC2)s1,-2.602,9.6
N#Cc1cccc(N2CCC3(CCC(=O)N(CC(N)=O)C3)CC2)n1,16.84,11.48
O=C(O)C1(n2ccc(-c3ccco3)n2)CCN(Cc2cccs2)CC1,5.091,18.09
Cc1noc(C2CCCN(Cn3cc(Cl)cn3)C2)n1 (configuration not stated),25.24,10.62
CC(C)CC(=O)N1C[C@@H]2CCN(c3ncccn3)C[C@@H]2C1,-,17.07
Cc1cccc(CN2CCCC2c2cccc(Nc3nccs3)n2)c1 (configuration not stated),-13.01,12.59
Fc1ccc(Oc2nccnc2C2CCN(C3CCOCC3)CC2)cc1,3.732,4.255
CCN(Cc1nc(C(C)C)no1)Cc1cccs1,13.3,8.491
CCc1nnc(SC2CCCN(c3cnn(C)c3)C2=O)n1C (configuration not stated),-6.904,7.692
CCCNCc1cn(Cc2ccccc2)nc1-c1cccnc1,-,-2.74
O=C(O)C(F)(F)F.O=C(O)C(F)(F)F.[H][C@@]12CN(C(=O)c3ccsc3)C[C@]1([H])OCCN2CCN(C)C,5.842,-
O=C(NCCSCc1cccs1)C1CCCN(C(=O)N2CCCC2)C1 (configuration not stated),-5.939,3.03

Repeated from the top, 7 entries:

structure	Toxoplasma	LiHisRS
CCn1c(CN2CCN(CCO)CC2)nc2c(F)cccc21	-14.45	16.07
Cc1c[nH]cc1C(=O)N1CCN(CCc2cccs2)CC1	-18.87	17.02
COc1ccccc1OCc1cc(C(=O)N2CC=CC2C(C)C)n[nH]1 (configuration not stated)	-6.397	22.12
CCc1nnc2n1CCN(C(=O)CN(CC)CC)C2	-11.44	13.39
CCN1CC(C(=O)N2CC(Oc3ccccc3F)C2)CC1=O (configuration not stated)	7.391	20.97
CC(CNC(=O)N1CCSCC1)Cc1cccs1 (configuration not stated)	-2.36	19.23
O=C(c1ccc(F)cc1F)N1CCN(C(=O)C2CCCCC2)CC1	9.291	24.05